# Reference: EP1996603B1, “LIPID A ANTAGONISTS WITH ANTI-SEPTIC SHOCK, ANTI-INFLAMMATORY, ANTI-ISCHEMIA AND ANALGESIC ACTIVITY” (Università Degli Studi Di Milano - Bicocca, priority 2006, dated 2007)
# At least one structure is not confirmed: it was looked up by name or label, or the drawing left a doubt.
# Test system: BMΦ, BMDC and D1 cells
# Test: Lipid A-induced TNFα production in macrophages and dendritic cells (ELISA)
# Type: cell-based, Mouse
# Conditions: stimulation with lipid A (0.5 µM) after pre-exposure to compound, TNFα released in the supernatant measured by ELISA
# Protocol: BMΦ and DC were derived from bone marrow cells and divided in two separate cultures. For DC preparation bone marrow cells were cultured in complete IMDM supplemented with 10% supernatant of GM-CSF-transduced B16 tumor cells [R. Soiffer, T. Lynch, M. Mihm, K. Jung, C. Rhuda, J. C. Schmollinger, F. S. Hodi, L. Liebster, P. Lam, S. Mentzer, S. Singer, K. K. Tanabe, A. B. Cosimi, R. Duda, A. Sober, A. Bhan, J. Daley, D. Neuberg, G. Parry, J. Rokovich, L. Richards, J. Drayer, A. Berns, S. Clift, L. K. Cohen, R. C. Mulligan, G. Dranoff, Proc. Natl. Acad. Sci. U S A. 1998, 95(22), 13141-13146]. Fresh medium was added every 2 d. After 7-10 d of culture, cells were analyzed for CD11c expression and used in assays when 90% were CD11c positive. […] After 7-10 d of culture, cells were analyzed for Mac1 expression and used in assays when at least 90% were Mac1 positive. […]
# Given the pivotal role of early-activated DC and MΦ in directing inflammatory reactions, compounds Ia, Ic and Id were tested for their ability to antagonize the stimulatory activity of lipid A on bone marrow derived macrophages (BMΦ) and DC (BMDC) by interfering with their capacity to induce TNFα production. […] BMΦ, BMDC and D1 cells were stimulated with lipid A (0.5 µM) after a pre-exposure to compounds Ia, Ic and Id and the amount of TNFα released in the supernatant was measured by ELISA.
smiles,measurement,value
"CCCCCCCCCCCCCCO[C@H]1[C@@H](OC)O[C@H](CNOC)[C@@H](O)[C@@H]1OCCCCCCCCCCCCCC [Compound 10, Methyl 6-methoxylamino-2,3-di-O-tetradecyl-6-deoxy-α-D-glucopyranoside]",TNFα production,totally inactive
